The supplement of paper PMC10331698
± gives the standard deviation of the averaged measurements. Most values lie at the level of the controls, where differences are scatter.

Legend:
Test in all cases: level (log10 ratio to DMSO vehicle control); higher = higher biomarker level / cell amount than vehicle control
[1] = compound: C=C(C)C(=O)OCC(F)(F)C(F)(F)C(F)(F)F [2,2,3,3,4,4,4-Heptafluorobutyl methacrylate]; settings: 2200 nM; in DMSO
Procedure: (§1)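 BioMAP Diversity Plus panel of 12 human primary cell co-culture systems (3C, 4H, LPS, SAg, BT, BF4T, BE3C, CASM3C, HDF3CGF, KF3CT, MyoF, Mphg). Compounds were added 1 h before stimulation and left for 24 h (MyoF 48 h; BT 72 h for soluble read-outs or 6 d for IgG). Biomarkers were read by ELISA, cytotoxicity by SRB, PBMC viability and proliferation by Alamar Blue. Each well value was divided by the mean of 8 DMSO control wells on the same plate and log10 transformed; duplicate blinded samples were tested at 4 concentrations.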

[2] = compound: C=CC(=O)OCC(F)(F)C(F)(F)C(F)(F)C(F)(F)COC(=O)C=C [1H,1H,6H,6H-Perfluorohexane-1,6-diol diacrylate]; settings: 2200 nM; in DMSO
Procedure: as §1

[3] = compound: FC(F)(F)C(F)(F)C(F)(F)C(F)(F)C(F)(F)C(F)(F)C(F)(F)CCI [1-Iodo-1H,1H,2H,2H-perfluorononane]; settings: in DMSO
Procedure: as §1

[4] = compound: FC(F)(F)C(F)(F)C(F)(F)C(F)(F)C(F)(F)C(F)(F)C(F)(F)I [1-Iodopentadecafluoroheptane]; settings: in DMSO
Procedure: as §1

[5] = compound: FC(F)C(F)(F)COCC1CO1 [((2,2,3,3-Tetrafluoropropoxy)methyl)oxirane]; settings: 2200 nM; in DMSO
Procedure: as §1

Perfluorooctanamide = compound: NC(=O)C(F)(F)C(F)(F)C(F)(F)C(F)(F)C(F)(F)C(F)(F)C(F)(F)F [Perfluorooctanamide]; settings: 2200 nM; in DMSO
Procedure: as §1

Perfluoroundecanoic acid = compound: O=C(O)C(F)(F)C(F)(F)C(F)(F)C(F)(F)C(F)(F)C(F)(F)C(F)(F)C(F)(F)C(F)(F)C(F)(F)F [Perfluoroundecanoic acid]; settings: in DMSO
Procedure: as §1

[6] = compound: O=C(O)C(F)(F)C(F)(F)C(F)(F)C(F)(F)C(F)(F)C(F)(F)C(F)(F)C(F)F [9-H-Perfluorononanoic acid]; settings: 2200 nM; in DMSO
Procedure: as §1

Perfluorobutanoic acid = compound: O=C(O)C(F)(F)C(F)(F)C(F)(F)F [Perfluorobutanoic acid]; settings: 2200 nM; in DMSO
Procedure: as §1

Perfluoropropanoic acid = compound: O=C(O)C(F)(F)C(F)(F)F [Perfluoropropanoic acid]; settings: 2200 nM; in DMSO
Procedure: as §1

[7] = compound: O=C(O)C(F)(F)C(F)(F)OC(F)(F)F [Perfluoro-3-methoxypropanoic acid]; settings: 2200 nM; in DMSO
Procedure: as §1

[8] = compound: O=C(O)C(F)(F)OC(F)(F)C(F)(F)OC(F)(F)C(=O)O [Perfluoro-3,6-dioxaoctane-1,8-dioic acid]; settings: 2200 nM; in DMSO
Procedure: as §1

[9] = compound: O=C(O)C(F)(F)OC(F)(F)C(F)(F)OC(F)(F)C(F)(F)C(F)(F)C(F)(F)F [Perfluoro-3,6-dioxadecanoic acid]; settings: 2200 nM; in DMSO
Procedure: as §1

[10] = compound: O=C(O)C=CC(F)(C(F)(F)F)C(F)(F)F [3-(Perfluoroisopropyl)-2-propenoic acid]; settings: in DMSO
Procedure: as §1

[11] = compound: O=P(O)(O)CCC(F)(F)C(F)(F)C(F)(F)C(F)(F)C(F)(F)C(F)(F)C(F)(F)C(F)(F)F [((Perfluorooctyl)ethyl)phosphonic acid]; settings: 2200 nM; in DMSO
Procedure: as §1

[12] = compound: O=S(=O)(Cl)C(F)(F)C(F)(F)C(F)(F)C(F)(F)C(F)(F)C(F)(F)C(F)(F)C(F)(F)F [Perfluoro-1-octanesulfonyl chloride]; settings: 2200 nM; in DMSO
Procedure: as §1

[13] = compound: OCC(F)(F)C(F)(F)C(F)(F)C(F)(F)C(F)(F)C(F)(F)C(F)(F)C(F)(F)C(F)(F)C(F)(F)C(F)(F)F [11:1 Fluorotelomer alcohol]; settings: in DMSO
Procedure: as §1

[14] = compound: OCCC(F)(F)C(F)(F)C(F)(F)C(F)(F)C(F)(F)C(F)(F)C(F)(F)C(F)(F)F [8:2 Fluorotelomer alcohol]; settings: 2200 nM; in DMSO
Procedure: as §1

Test System	level (log10) [1]	level (log10) [2]	level (log10) ([3]; 740 nM)	level (log10) ([3]; 2200 nM)	level (log10) ([3]; 6700 nM)	level (log10) ([3]; 20000 nM)	level (log10) ([4]; 740 nM)	level (log10) ([4]; 2200 nM)	level (log10) ([4]; 6700 nM)	level (log10) ([4]; 20000 nM)	level (log10) [5]	level (log10) (Perfluorooctanamide)	level (log10) (Perfluoroundecanoic acid; 740 nM)	level (log10) (Perfluoroundecanoic acid; 2200 nM)	level (log10) [6]	level (log10) (Perfluorobutanoic acid)	level (log10) (Perfluoropropanoic acid)	level (log10) [7]	level (log10) [8]	level (log10) [9]	level (log10) ([10]; 2200 nM)	level (log10) ([10]; 6700 nM)	level (log10) ([10]; 20000 nM)	level (log10) ([10]; 60000 nM)	level (log10) [11]	level (log10) [12]	level (log10) ([13]; 370 nM)	level (log10) ([13]; 1100 nM)	level (log10) ([13]; 3300 nM)	level (log10) ([13]; 10000 nM)	level (log10) [14]
lMphg:CD69	0.0445 ± 0.0035	0.008 ± 0.0014	-0.026 ± 0.03	-0.0195 ± 0.039	-0.0025 ± 0.023	-0.053 ± 0.076	-0.029	-0.0625 ± 0.05	-0.0455 ± 0.043	-0.079 ± 0.062	0.0285 ± 0.026	0.0195 ± 0.022	-0.0295 ± 0.086	-0.043 ± 0.041	-0.086 ± 0.083	0.048 ± 0.0085	0.0065 ± 0.036	0.0035 ± 0.021	0.0125 ± 0.018	-0.009 ± 0.061	0.0055 ± 0.028	-0.0265 ± 0.022	-0.021 ± 0.035	0.0235 ± 0.049	0.014 ± 0.04	-0.0415 ± 0.084	-0.0155 ± 0.047	-0.038 ± 0.017	-0.103 ± 0.028	-0.0685 ± 0.0078	-0.026 ± 0.1
BF4T:CD90	0.0145 ± 0.0092	-0.0025 ± 0.0021	-0.009 ± 0.013	-0.0225 ± 0.0092	-0.0245 ± 0.021	-0.0345 ± 0.0021	-0.001 ± 0.011	-0.003 ± 0.0042	0.001 ± 0.016	-0.0025 ± 0.0021	0.0155 ± 0.0021	-0.0025 ± 0.005	-0.0025 ± 0.0035	-0.011	-0.051 ± 0.0071	0.007 ± 0.0071	-0.0025 ± 0.011	-0.0075 ± 0.0064	0.0065 ± 0.026	-0.006 ± 0.033	0.0065 ± 0.032	-0.0005 ± 0.013	-0.0105 ± 0.0035	0.018 ± 0.0028	0.0165 ± 0.028	0.0085 ± 0.018	0.0015 ± 0.019	0.0025 ± 0.011	-0.0025 ± 0.011	0.002 ± 0.0042	-0.0045 ± 0.018
BT:PBMC Cytotoxicity	0.031 ± 0.0057	-0.0625 ± 0.015	0.013 ± 0.0014	0.01 ± 0.0099	0.0115 ± 0.0035	0.0115 ± 0.011	0.033 ± 0.057	0.0085 ± 0.076	0.014 ± 0.0057	0.0075 ± 0.049	0.0035 ± 0.025	0.027 ± 0.052	0.044 ± 0.02	0.023 ± 0.024	-0.0025 ± 0.018	0.006 ± 0.011	-0.008 ± 0.028	0.008 ± 0.062	-0.006 ± 0.071	0.0015 ± 0.0035	-0.017 ± 0.0042	-0.016 ± 0.0042	0.002 ± 0.0042	0.021 ± 0.0057	0.0025 ± 0.005	0.03 ± 0.0042	-0.009 ± 0.052	-0.073 ± 0.044	-0.09 ± 0.038	-0.0775 ± 0.019	0.013 ± 0.0057
